In patent publication US20140271661A1:
These are yes or no findings as the source states them, for the method shown. Some entries that bind do so weakly or less than the wild type.

The chains behind the UniProt entries cited, without tags or fusion partners. Residues count along the entry.
UniProt P01008, residues 33-464: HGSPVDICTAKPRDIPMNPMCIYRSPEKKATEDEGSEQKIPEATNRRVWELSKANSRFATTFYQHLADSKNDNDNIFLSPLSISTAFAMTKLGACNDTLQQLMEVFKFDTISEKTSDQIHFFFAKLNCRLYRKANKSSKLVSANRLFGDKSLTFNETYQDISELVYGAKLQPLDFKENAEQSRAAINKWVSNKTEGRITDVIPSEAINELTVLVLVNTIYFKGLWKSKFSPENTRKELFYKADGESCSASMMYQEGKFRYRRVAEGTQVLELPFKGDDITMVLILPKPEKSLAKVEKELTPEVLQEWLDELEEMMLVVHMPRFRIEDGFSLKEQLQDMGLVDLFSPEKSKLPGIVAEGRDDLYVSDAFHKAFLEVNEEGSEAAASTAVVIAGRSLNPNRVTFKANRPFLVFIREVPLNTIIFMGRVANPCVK

Biological target: human antithrombin β complexed with heparin (human ATβH) (human) (UniProt P01008)
Experiment: panning and screening of human antibody libraries against human ATβ in complex with heparin

B1: TPP2803 IgG2, Germlined and converted to IgG2 (antibody, V domains shown)
VH: EVQLLESGGGLVQPGGSLRLSCAASGFTFSSYRMSWVRQAPGKGLEWVSRIYSSGGRTRYADSVKGRFTISRDNSKNTLYLQMNSLRAEDTAVYYCAREKASDLSGSFSEALDYWGQGTLVTVSS
VL: SSELTQDPAVSVALGQTVRITCQGDSLRSYYASWYQQKPGQAPVLVIYGKNNRPSGIPDRFSGSSSGNTASLTITGAQAEDEADYYCNSRDSSGNHLVFGGGTKLTVLG
  binding: binds
